From patent US20190030046A1, “USE OF PURE COMPOUNDS EXTRACTED FROM ANTRODIA CAMPHORATA” (priority 2016, published 2019)
At least one compound was matched to its structure with a doubt left.

Key:
[1] = tested on: G6-Pase; experiment: Semiquantitative RT-PCR in liver tissue: G6-Pase; assay type: in vivo, C57BL/6J mice; conditions: vs HF; HF+Feno, 0.25 g/kg/day oral, 4 weeks
Experimental: (§1) The difference indicates the daily food intake.
(§2) Total RNA from liver tissue was isolated with a Trizol Reagent (Molecular Research Center, Inc., Cincinnati, Ohio, USA) according to the manufacturer's instructions. The integrity of the extracted total RNA was examined by 2% agarose gel electrophoresis, and the RNA concentration was determined by […] ultraviolet (UV) light absorbency at 260 nm and 280 nm (Spectrophotometer U-2800A, Hitachi). The total RNA (1 μg) was reverse transcribed to cDNA, and 5 μL Moloney murine leukemia virus reverse transcriptase (TEpicentre, Madison, Wis., USA). The PCR was performed in a final 25 μL containing 1 U Blend Taq-Plus (TOYOBO, Japan), 10 μL of the RT cDNA product, 10 μM of each forward (F) and reverse (R) primer, 75 mM Tris-HCL (pH 8.3) containing 1 mg/L Tween 20 (pH 8.3, also known as polyoxyethylene sorbitan monolaurate), 2.5 mM dNTP (deoxy-ribonucleoside triphosphate), and 2 mM MgCl2 (magnesium chloride). The PCR products were analyzed by 2% agarose gel and stained with ethidium bromide.

[2] = tested on: 11β-HSD1; experiment: Semiquantitative RT-PCR in liver tissue: 11β-HSD1; assay type: in vivo, C57BL/6J mice; conditions: vs HF; HF+Feno, 0.25 g/kg/day oral, 4 weeks
Experimental: as §1, §2

[3] = tested on: SREBP-1c; experiment: Semiquantitative RT-PCR in liver tissue: SREBP-1c; assay type: in vivo, C57BL/6J mice; conditions: vs HF; HF+Feno, 0.25 g/kg/day oral, 4 weeks
Experimental: as §1, §2

[4] = tested on: aP2; experiment: Semiquantitative RT-PCR in liver tissue: aP2; assay type: in vivo, C57BL/6J mice; conditions: vs HF; HF+Feno, 0.25 g/kg/day oral, 4 weeks
Experimental: as §1, §2

[5] = tested on: GPAT; experiment: Semiquantitative RT-PCR in liver tissue: GPAT; assay type: in vivo, C57BL/6J mice; conditions: vs HF; HF+Feno, 0.25 g/kg/day oral, 4 weeks
Experimental: as §1, §2

[6] = tested on: SREBP-2; experiment: Semiquantitative RT-PCR in liver tissue: SREBP-2; assay type: in vivo, C57BL/6J mice; conditions: vs HF; HF+Feno, 0.25 g/kg/day oral, 4 weeks
Experimental: as §1, §2

[7] = tested on: CPT-1a; experiment: Semiquantitative RT-PCR in liver tissue: CPT-1a; assay type: in vivo, C57BL/6J mice; conditions: vs HF; HF+Feno, 0.25 g/kg/day oral, 4 weeks
Experimental: as §1, §2

[8] = tested on: membrane GLUT4; experiment: Western blot of skeletal muscle membrane GLUT4 in HFD mice; conditions: compared to HF; HF+Feno, 0.25 g/kg/day oral, 4 weeks
[9] = tested on: FAS; experiment: Western blot of FAS protein in liver and adipose tissue of HFD mice; conditions: compared to HF; HF+Feno, 0.25 g/kg/day oral, 4 weeks
[10] = tested on: phospho-AMPK(Thr172); experiment: Western blot of phospho-AMPK(Thr172)/total-AMPK in skeletal muscle and liver of HFD mice; conditions: compared to HF; HF+Feno, 0.25 g/kg/day oral, 4 weeks

CC(C)OC(=O)C(C)(C)Oc1ccc(C(=O)c2ccc(Cl)cc2)cc1 [Feno, fenofibrate, reference compound]
G6-Pase mRNA expression level in liver [1]: decreased
11β-HSD1 mRNA expression level in liver [2]: decreased
SREBP-1c mRNA expression level in liver [3]: decreased
aP2 mRNA expression level in liver [4]: decreased
GPAT mRNA expression level in liver [5]: decreased
SREBP-2 mRNA expression level in liver [6]: decreased
CPT-1a mRNA expression level in liver [7]: increased
membrane expression level of GLUT4 in skeletal muscle [8]: significantly increased
FAS protein expression level in adipose tissue [9]: significantly decreased
expression level of p-AMPK/t-AMPK proteins in liver [10]: significantly increased
expression level of phospho-AMPK/total-AMPK in skeletal muscle [10]: significantly increased
